These are yes or no findings as the source states them, for the method shown. For some assays here: Binding seen in cells or lysates may run through a third protein. Some results given as binding are weak or reduced against the parent protein; the word gives no strength.
T1: BADC3 (Single hybrid motif protein, AT3G15690), Arabidopsis thaliana (Arabidopsis thaliana)
T1 sequence: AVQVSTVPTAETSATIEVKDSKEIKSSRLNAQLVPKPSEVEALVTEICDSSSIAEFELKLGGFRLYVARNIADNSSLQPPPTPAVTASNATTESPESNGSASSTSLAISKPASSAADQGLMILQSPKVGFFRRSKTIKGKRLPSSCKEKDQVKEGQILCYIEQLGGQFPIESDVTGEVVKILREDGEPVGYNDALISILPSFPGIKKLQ

T2: BADC2 (Single hybrid motif protein, AT1G52670), Arabidopsis thaliana (Arabidopsis thaliana)
T2 sequence: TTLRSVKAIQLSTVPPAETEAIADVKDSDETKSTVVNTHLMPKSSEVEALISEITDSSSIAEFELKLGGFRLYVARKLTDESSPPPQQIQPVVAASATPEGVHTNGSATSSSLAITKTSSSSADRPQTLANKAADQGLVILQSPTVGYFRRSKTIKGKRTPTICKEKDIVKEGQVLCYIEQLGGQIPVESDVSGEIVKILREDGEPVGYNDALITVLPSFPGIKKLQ

T3: biotin carboxylase (BC) subunit of hetACCase, AT5G35360, Arabidopsis thaliana (Arabidopsis thaliana) (UniProt O04983)
T3 sequence (looked up): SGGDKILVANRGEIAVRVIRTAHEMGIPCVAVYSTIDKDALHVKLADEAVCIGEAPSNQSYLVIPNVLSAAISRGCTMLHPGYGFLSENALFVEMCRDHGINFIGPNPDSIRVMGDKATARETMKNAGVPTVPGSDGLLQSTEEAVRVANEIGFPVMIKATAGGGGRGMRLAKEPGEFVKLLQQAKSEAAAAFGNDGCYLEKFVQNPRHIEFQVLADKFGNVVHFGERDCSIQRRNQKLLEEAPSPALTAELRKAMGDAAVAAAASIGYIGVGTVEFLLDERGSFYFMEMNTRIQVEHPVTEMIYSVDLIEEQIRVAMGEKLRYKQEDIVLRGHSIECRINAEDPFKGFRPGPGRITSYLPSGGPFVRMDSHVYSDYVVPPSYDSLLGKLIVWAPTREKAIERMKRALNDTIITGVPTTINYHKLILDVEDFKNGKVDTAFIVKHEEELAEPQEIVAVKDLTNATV

B1: BADC1 (biotin/lipoyl attachment domain-containing protein, AT3G56130), Arabidopsis thaliana (protein)
chain: AKAAKSSTTTISDGSSDASVSDGKKTVRRITFPKEVEALVHEMCDETEVAVLQLKVGDFEMNLKRKIGAATNPIPVADISPTVAPPIPSEPMNKSASSAPSPSQAKPSSEKVSPFKNTSYGKPAKLAALEASGSTNYVLVTSPAVGKFQRSRTVKGKKQSPSCKEGDAIKEGQVIGYLHQLGTELPVTSDVAGEVLKLLSDDGDSVGYGDPLVAVLPSFHDINIQ
B2: BADC2 (Single hybrid motif protein, AT1G52670), Arabidopsis thaliana (other)
chain: TTLRSVKAIQLSTVPPAETEAIADVKDSDETKSTVVNTHLMPKSSEVEALISEITDSSSIAEFELKLGGFRLYVARKLTDESSPPPQQIQPVVAASATPEGVHTNGSATSSSLAITKTSSSSADRPQTLANKAADQGLVILQSPTVGYFRRSKTIKGKRTPTICKEKDIVKEGQVLCYIEQLGGQIPVESDVSGEIVKILREDGEPVGYNDALITVLPSFPGIKKLQ
notes: Native protein in chloroplast lysate for the co-IPs; Recombinant and two-hybrid constructs lack the TargetP-predicted transit peptide; His-tagged or untagged in co-expression; also called AtBADC2; NP_564612.1
B3: BADC3 (Single hybrid motif protein, AT3G15690), Arabidopsis thaliana (protein)
chain: AVQVSTVPTAETSATIEVKDSKEIKSSRLNAQLVPKPSEVEALVTEICDSSSIAEFELKLGGFRLYVARNIADNSSLQPPPTPAVTASNATTESPESNGSASSTSLAISKPASSAADQGLMILQSPKVGFFRRSKTIKGKRLPSSCKEKDQVKEGQILCYIEQLGGQFPIESDVTGEVVKILREDGEPVGYNDALISILPSFPGIKKLQ

How the values were obtained:
[1] = target: T1, BADC3 (Single hybrid motif protein, AT3G15690), Arabidopsis thaliana (Arabidopsis thaliana); experiment: yeast two-hybrid, strain AH109
[2] = target: T2, BADC2 (Single hybrid motif protein, AT1G52670), Arabidopsis thaliana (Arabidopsis thaliana); experiment: yeast two-hybrid, strain AH109
[3] = target: BADC1 (biotin/lipoyl attachment domain-containing protein, AT3G56130), Arabidopsis thaliana (Arabidopsis thaliana); experiment: intact mass analysis; non-reducing SDS-PAGE (monomer and dimer band, dimer lost with DTT)
[4] = target: BADC1 (biotin/lipoyl attachment domain-containing protein, AT3G56130), Arabidopsis thaliana (Arabidopsis thaliana); experiment: intact mass analysis
[5] = target: T3, biotin carboxylase (BC) subunit of hetACCase, AT5G35360, Arabidopsis thaliana (Arabidopsis thaliana); experiment: co-expression in E. coli, Ni-NTA co-purification
[6] = target: T1, BADC3 (Single hybrid motif protein, AT3G15690), Arabidopsis thaliana (Arabidopsis thaliana); experiment: intact mass analysis; non-reducing SDS-PAGE (monomer and dimer band, dimer lost with DTT)
[7] = target: T1, BADC3 (Single hybrid motif protein, AT3G15690), Arabidopsis thaliana (Arabidopsis thaliana); experiment: intact mass analysis

Binder	binding [1]	binding [2]	binding [3]	binding [4]	binding [5]	binding [6]	binding [7]
B1	binds	binds	binds	binds			
B2	binds						
B3					binds	binds	binds

Reference: US20210171970A1 (CURATORS OF THE UNIVERSITY OF MISSOURI, published 2021)
